# Measured values reported in the supplement of paper PMC7666118.
# The chains behind the UniProt entries cited, without tags or fusion partners. Where a name states a change or a piece, a line headed by the entry shows the natural chain unless it says otherwise.
# UniProt Q7L8J4: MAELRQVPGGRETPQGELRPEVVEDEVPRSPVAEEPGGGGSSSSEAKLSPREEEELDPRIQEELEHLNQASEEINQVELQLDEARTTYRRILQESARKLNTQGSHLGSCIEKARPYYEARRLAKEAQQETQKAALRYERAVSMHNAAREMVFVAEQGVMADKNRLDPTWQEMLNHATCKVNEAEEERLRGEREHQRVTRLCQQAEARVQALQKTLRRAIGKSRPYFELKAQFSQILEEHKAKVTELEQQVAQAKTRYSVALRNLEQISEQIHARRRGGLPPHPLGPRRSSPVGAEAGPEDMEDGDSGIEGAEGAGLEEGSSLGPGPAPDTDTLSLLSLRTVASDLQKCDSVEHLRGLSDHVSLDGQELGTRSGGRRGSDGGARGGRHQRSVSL
# UniProt P34897: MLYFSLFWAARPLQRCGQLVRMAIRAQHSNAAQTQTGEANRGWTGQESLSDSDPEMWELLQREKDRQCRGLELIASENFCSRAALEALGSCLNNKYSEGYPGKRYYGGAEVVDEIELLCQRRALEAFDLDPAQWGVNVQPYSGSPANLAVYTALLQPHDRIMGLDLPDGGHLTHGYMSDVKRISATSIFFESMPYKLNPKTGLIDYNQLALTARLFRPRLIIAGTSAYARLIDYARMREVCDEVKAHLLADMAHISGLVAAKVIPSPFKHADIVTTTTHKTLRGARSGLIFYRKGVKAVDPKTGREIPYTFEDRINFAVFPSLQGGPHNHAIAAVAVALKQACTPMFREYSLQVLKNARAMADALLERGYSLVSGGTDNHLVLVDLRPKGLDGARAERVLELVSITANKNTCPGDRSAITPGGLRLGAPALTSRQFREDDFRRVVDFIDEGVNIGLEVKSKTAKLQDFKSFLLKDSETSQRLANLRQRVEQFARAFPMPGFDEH
# UniProt Q8IUQ4: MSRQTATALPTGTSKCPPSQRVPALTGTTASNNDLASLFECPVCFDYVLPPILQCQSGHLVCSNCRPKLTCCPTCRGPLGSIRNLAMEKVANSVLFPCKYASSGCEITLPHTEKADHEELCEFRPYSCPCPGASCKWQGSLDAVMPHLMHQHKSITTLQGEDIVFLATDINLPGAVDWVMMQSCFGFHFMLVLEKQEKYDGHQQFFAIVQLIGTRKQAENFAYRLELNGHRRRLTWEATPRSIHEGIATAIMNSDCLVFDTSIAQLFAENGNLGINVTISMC
# UniProt Q15637: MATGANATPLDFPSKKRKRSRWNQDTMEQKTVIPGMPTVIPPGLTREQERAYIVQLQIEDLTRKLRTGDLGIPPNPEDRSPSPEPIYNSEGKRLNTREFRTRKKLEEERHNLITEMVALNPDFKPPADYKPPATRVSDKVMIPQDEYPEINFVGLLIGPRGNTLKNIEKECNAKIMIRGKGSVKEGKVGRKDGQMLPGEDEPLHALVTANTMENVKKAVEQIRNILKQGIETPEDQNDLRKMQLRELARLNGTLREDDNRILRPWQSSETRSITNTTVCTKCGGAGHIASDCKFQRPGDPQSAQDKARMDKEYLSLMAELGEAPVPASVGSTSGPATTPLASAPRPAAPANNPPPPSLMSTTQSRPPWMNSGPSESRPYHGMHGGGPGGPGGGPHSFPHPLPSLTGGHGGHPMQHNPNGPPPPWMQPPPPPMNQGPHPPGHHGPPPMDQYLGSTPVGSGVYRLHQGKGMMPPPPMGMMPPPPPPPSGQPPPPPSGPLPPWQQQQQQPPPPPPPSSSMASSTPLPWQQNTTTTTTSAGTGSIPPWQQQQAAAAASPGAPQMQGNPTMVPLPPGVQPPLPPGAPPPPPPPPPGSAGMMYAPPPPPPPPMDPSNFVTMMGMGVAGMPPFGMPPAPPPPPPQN
# UniProt Q9Y5X1: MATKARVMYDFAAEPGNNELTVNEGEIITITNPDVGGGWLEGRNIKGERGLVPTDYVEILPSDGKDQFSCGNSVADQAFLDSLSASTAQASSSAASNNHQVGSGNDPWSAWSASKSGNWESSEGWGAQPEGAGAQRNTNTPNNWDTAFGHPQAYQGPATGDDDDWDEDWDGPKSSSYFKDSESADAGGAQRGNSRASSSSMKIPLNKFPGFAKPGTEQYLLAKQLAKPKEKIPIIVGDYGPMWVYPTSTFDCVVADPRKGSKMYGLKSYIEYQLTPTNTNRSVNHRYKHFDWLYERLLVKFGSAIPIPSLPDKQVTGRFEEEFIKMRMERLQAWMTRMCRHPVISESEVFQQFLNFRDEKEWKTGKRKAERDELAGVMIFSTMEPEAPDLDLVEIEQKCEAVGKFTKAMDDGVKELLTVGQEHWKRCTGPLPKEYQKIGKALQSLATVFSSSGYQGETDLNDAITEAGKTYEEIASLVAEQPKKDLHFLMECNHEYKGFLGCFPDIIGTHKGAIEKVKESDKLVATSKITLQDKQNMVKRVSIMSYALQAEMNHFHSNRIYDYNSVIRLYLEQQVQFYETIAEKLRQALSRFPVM
# UniProt O15047, whole entry: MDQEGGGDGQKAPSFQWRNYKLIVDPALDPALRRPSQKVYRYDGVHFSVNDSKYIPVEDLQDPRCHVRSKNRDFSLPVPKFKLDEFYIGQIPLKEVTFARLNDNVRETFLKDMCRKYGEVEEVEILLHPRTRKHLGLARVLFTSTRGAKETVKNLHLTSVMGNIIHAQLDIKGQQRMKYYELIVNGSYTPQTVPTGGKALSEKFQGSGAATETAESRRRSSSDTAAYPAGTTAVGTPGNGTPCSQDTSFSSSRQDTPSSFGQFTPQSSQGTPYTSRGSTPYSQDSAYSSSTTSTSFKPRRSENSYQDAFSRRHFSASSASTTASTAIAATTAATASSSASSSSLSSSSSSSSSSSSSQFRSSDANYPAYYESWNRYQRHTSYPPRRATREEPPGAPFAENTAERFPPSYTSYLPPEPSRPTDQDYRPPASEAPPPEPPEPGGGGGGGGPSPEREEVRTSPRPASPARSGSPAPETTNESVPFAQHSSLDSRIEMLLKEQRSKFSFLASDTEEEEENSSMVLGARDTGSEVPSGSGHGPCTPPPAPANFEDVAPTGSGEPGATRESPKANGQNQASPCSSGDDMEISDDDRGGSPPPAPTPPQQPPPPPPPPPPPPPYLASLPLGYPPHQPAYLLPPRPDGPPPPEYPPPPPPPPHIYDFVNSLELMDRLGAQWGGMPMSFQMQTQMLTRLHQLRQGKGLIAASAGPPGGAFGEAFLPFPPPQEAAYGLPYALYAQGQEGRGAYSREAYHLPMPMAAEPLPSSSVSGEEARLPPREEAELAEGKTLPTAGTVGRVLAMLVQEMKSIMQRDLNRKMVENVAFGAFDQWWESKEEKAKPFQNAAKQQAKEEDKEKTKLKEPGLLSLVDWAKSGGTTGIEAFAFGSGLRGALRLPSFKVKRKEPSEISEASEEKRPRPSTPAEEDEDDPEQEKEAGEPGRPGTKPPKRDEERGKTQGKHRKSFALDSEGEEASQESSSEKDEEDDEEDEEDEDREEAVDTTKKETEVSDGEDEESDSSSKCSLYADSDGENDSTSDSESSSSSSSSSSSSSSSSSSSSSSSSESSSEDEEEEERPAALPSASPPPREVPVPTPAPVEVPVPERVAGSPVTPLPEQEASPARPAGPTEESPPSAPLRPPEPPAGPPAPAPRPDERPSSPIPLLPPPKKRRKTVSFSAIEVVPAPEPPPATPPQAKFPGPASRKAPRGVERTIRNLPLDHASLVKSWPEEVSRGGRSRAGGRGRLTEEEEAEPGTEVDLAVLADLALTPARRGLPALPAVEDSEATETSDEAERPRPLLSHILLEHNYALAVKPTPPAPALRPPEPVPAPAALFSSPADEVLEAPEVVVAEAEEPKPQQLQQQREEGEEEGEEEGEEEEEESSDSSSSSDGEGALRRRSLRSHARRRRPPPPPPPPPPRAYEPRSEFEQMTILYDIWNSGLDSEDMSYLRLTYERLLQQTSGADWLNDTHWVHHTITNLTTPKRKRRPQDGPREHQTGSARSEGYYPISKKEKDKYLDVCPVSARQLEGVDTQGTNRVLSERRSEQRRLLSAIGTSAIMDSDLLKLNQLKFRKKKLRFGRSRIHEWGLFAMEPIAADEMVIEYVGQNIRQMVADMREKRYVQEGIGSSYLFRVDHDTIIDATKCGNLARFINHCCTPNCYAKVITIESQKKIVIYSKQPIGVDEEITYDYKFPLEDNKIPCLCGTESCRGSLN
# UniProt Q92925, whole entry: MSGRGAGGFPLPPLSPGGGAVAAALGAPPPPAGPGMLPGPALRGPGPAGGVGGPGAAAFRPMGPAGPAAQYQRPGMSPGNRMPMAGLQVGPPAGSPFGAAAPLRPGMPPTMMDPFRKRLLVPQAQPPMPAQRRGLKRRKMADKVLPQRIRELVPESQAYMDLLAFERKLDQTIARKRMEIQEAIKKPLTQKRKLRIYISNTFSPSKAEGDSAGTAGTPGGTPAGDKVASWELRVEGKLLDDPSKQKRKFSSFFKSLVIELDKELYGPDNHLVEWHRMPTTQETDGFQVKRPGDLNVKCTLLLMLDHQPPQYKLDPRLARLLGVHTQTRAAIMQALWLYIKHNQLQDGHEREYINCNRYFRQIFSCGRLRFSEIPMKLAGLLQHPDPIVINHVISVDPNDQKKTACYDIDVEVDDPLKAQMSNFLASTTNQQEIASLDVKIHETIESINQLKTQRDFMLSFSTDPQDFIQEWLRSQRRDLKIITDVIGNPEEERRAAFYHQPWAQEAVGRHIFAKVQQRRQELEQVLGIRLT
# UniProt Q8WU79: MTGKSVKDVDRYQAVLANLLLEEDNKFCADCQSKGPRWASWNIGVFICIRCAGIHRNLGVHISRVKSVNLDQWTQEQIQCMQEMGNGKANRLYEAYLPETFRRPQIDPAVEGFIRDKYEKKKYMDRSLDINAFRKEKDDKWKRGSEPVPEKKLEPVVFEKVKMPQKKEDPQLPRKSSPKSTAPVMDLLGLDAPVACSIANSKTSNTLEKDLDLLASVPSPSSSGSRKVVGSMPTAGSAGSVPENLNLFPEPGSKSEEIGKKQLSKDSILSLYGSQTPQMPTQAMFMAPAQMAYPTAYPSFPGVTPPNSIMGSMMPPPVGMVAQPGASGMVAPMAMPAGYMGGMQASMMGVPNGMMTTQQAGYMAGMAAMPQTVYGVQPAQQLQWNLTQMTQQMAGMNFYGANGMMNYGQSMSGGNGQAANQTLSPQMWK
# UniProt Q8IYB5: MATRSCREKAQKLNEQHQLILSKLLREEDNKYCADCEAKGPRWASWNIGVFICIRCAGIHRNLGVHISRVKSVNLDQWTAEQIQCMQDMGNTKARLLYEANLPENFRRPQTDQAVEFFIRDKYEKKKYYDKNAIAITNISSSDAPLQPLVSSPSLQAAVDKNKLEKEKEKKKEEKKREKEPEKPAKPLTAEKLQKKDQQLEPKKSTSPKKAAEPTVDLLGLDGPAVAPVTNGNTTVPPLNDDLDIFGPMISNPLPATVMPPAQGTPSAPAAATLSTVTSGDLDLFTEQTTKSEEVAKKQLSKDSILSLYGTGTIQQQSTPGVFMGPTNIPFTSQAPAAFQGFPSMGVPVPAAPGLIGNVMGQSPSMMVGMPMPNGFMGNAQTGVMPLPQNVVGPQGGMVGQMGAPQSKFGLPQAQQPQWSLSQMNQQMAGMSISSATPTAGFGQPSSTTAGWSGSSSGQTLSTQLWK
# UniProt Q587I9: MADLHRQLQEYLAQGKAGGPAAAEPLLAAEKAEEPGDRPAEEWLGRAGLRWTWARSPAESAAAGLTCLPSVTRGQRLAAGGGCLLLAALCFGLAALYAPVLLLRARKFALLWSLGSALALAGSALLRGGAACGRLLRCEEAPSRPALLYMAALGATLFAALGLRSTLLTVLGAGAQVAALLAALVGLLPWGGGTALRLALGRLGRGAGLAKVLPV
# UniProt Q8WTS6: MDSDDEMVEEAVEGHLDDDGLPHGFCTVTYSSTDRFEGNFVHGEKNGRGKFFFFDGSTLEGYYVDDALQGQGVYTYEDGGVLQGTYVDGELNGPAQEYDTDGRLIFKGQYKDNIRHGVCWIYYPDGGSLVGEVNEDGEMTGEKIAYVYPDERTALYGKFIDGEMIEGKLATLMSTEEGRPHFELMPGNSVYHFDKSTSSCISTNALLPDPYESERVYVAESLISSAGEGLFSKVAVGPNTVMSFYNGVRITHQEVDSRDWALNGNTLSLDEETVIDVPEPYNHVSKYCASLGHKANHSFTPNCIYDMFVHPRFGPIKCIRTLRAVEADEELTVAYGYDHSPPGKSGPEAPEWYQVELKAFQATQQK
# UniProt Q8TBP6: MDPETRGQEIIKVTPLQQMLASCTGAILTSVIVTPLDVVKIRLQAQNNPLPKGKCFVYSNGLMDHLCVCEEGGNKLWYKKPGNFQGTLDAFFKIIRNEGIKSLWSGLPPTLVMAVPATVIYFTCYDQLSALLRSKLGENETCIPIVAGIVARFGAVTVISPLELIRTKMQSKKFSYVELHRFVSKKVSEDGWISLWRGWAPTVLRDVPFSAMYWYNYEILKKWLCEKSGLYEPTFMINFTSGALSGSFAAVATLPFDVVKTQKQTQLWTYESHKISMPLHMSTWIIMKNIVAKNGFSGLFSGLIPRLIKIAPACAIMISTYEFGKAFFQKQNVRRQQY
# The list shows a part of the results.
# Compound: COc1ccc(Cn2ccc3cc(C)c(C(=O)NO)cc32)cc1
# Experiment: dose-dependent thermal stabilisation call (2D-TPP, DLPTP, 10% FDR) (binary (1 = stabilised)); higher = stabilised by the compound
# Conditions: system: HL-60 intact cells; concentration range 0.04-10 µM
# Description: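 2D thermal proteome profiling in intact HL-60 cells treated with BRD-3811 (0, 0.04, 0.29, 2, 10 uM) for 90 min at 37 C, then heated 3 min at one of 12 temperatures (42-63.9 C). Soluble protein was quantified by TMT10 MS. The value is the DLPTP call of the paper: dose-dependent thermal stabilisation over all temperatures at 10% FDR (F-test of a dose-response against a flat model); one experiment, one call per tested protein.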
row,Target,dose-dependent thermal stabilisation call
1,SH3BP5L (UniProt Q7L8J4),inactive: 0
2,SMG1 (UniProt Q96Q15),inactive: 0
3,SHMT2 (UniProt P34897),inactive: 0
4,SIAH1 (UniProt Q8IUQ4),inactive: 0
5,SF1 (UniProt Q15637),inactive: 0
6,SNUPN (UniProt O95149),inactive: 0
7,SMG5 (UniProt Q9UPR3),inactive: 0
8,SLC25A38 (UniProt Q96DW6),inactive: 0
9,SNX9 (UniProt Q9Y5X1),inactive: 0
10,SLC39A14 (UniProt Q15043),inactive: 0
11,SETD1A (UniProt O15047),inactive: 0
12,SIRT5 (UniProt Q9NXA8),inactive: 0
13,SMAD3 (UniProt P84022),inactive: 0
14,SLC38A2 (UniProt Q96QD8),inactive: 0
15,SMARCD2 (UniProt Q92925),inactive: 0
16,SLC22A5 (UniProt O76082),inactive: 0
17,SMAP2 (UniProt Q8WU79),inactive: 0
18,SLC7A1 (UniProt P30825),inactive: 0
19,SNX3 (UniProt O60493),inactive: 0
20,SMARCAL1 (UniProt Q9NZC9),inactive: 0
21,SF3B2 (UniProt Q13435),inactive: 0
22,SMAP1 (UniProt Q8IYB5),inactive: 0
23,SFT2D3 (UniProt Q587I9),inactive: 0
24,SETD7 (UniProt Q8WTS6),inactive: 0
25,SMCR8 (UniProt Q8TEV9),inactive: 0
26,SNX27 (UniProt Q96L92),inactive: 0
27,SLC25A40 (UniProt Q8TBP6),inactive: 0

# Some of the entries so far, bar-delimited:
row | Target | dose-dependent thermal stabilisation call
5 | SF1 (UniProt Q15637) | inactive: 0
15 | SMARCD2 (UniProt Q92925) | inactive: 0
16 | SLC22A5 (UniProt O76082) | inactive: 0
17 | SMAP2 (UniProt Q8WU79) | inactive: 0
18 | SLC7A1 (UniProt P30825) | inactive: 0
27 | SLC25A40 (UniProt Q8TBP6) | inactive: 0
